# Laboratory results taken from PubChem BioAssay AID2685 (National Center for Advancing Translational Sciences (NCATS), 2010).
# The list shows a part of the results. These are further read-outs of the screen, such as a control signal, another cell line or another target. No call is given for them. Compounds called inactive in the main read-out are mostly missing here. Words in brackets tell the shape of the fitted curve; partial curves, single points and poor fits give uncertain potencies.
# Experiment: qHTS Assay for Lipid Storage Modulators in Drosophila S3 Cells;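 for cell number change: cells counted by Cell Tracker Red CMTPX staining in the red channel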
# Details: BODIPY lipid droplet fluorescence, 18-24 h; for cell number change: measured here: cell count max response, cells fed with added oleic acid
# In short: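 Drosophila S3 cells got compounds at several concentrations plus oleic acid (400 uM solution). Laser-scanning cytometry with 488 nm excitation read lipid droplets at 500-530 nm and cells at 575-640 nm. Percent activity was relative to 20 uM Triacsin C.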
# [1] = measured here: lipid fluorescence (Fed channel) AC50, cells fed with added oleic acid
# [2] = measured here: cell number channel AC50, cells fed with added oleic acid
SMILES,cell number change [%],AC50 [1],AC50 [2]
CCN(CC)S(=O)(=O)c1ccc(N/N=C/c2ccc(O)cc2)nc1,13.7,"6.51 µM [rising, single point]",–
COc1cccc(N2CCN(C(=O)C3CCN(S(=O)(=O)c4ccc5c(c4)oc(=O)n5C)CC3)CC2)c1,-38.9,–,–
CCOC(=O)C1CCCN(S(=O)(=O)c2cn(C)c(=O)n(C)c2=O)C1 (stereo not given),–,"0.092 µM [falling, full curve]",–
Cc1ccc2c(C(=O)CN3CCCCC3)c(C)[nH]c2c1,34.5,–,"23.1 µM [rising, single point]"
FC(F)(F)c1cccc(N2CCc3cn[nH]c32)c1,–,"6.51 µM [rising, single point]",–
Cc1ccc2c(c1)c1ccc3c(c1n2C)C(=O)C=CC3=O,-62.8,–,"18.4 µM [falling, partial curve, poor fit]"
CC(C)(Oc1ccc(Cl)cc1)C(=O)N(Cc1ccccc1)c1ccccn1,–,"0.0731 µM [falling, full curve, poor fit]",–
CNc1nc(C)c(C#N)c(-c2ccccc2)c1C(C)=O,-11.4,"0.291 µM [rising, partial curve, poor fit]",–
CN1C(=O)c2cccc3c(S(=O)(=O)Nc4ccccn4)ccc1c23,-30.5,"16.4 µM [falling, single point]","20.6 µM [falling, single point]"
O=C(Nc1ccccc1C(=O)N1CCCCCC1)c1ccc(F)cc1,31.2,"29.1 µM [rising, single point]","29.1 µM [rising, single point]"
CCCN(CC(=O)Nc1ccc(C(N)=O)cc1)CC(=O)Nc1ccc(F)c(F)c1F,284,–,"29.1 µM [rising, partial curve]"
CC1Sc2ccc(Cl)cc2-c2nc(N)ncc21 (stereo not given),-37.2,–,"0.082 µM [falling, full curve, poor fit]"
COc1ccc(/C=N/NC(=O)c2ccc(CSc3nncn3C)cc2)cc1OC,31,"0.13 µM [rising, full curve, poor fit]","13 µM [rising, single point]"
COc1ccc(S(=O)(=O)Nc2c(C)ccc3nsnc23)cc1OC,15.8,"0.731 µM [rising, full curve]",–
O=C(NCc1ccco1)C(c1ccncc1)N(C(=O)Cn1nnc2ccccc21)c1ccccc1F (stereo not given),-14.1,–,–
CSc1ccc(S(=O)(=O)NCC(=O)OCCOc2ccccc2)cc1[N+](=O)[O-],-4.3,"0.00461 µM [rising, full curve, poor fit]",–
COc1ccc(/C=C/C(=O)Nc2cccnc2)cc1OC,-38.6,"6.51 µM [rising, single point]","32.6 µM [falling, single point]"
O=C(Nc1ccc(-c2cscn2)cc1)C1CCCN(Cc2ccccc2)C1 (stereo not given),37,"6.51 µM [rising, single point]",–
OCC1(Cc2ccccc2F)CCCN(Cc2c(F)ccc(F)c2F)C1 (stereo not given),-16.8,"16.4 µM [falling, single point]",–
Cn1c(=O)[nH]c(=O)c2c1nc(N(CCO)Cc1ccccc1)n2CCCc1ccccc1,-16.7,"13 µM [falling, partial curve, poor fit]",–

SMILES,cell number change [%],AC50 [1],AC50 [2]
COc1ccc(S(=O)(=O)N2CCCCC2)cc1NC(=O)c1ccccc1,51.3,–,"8.2 µM [rising, partial curve]"
COc1ccc(C(CNC(=O)c2ccco2)N2CCCCC2)cc1 (stereo not given),-88.7,"29.1 µM [falling, partial curve, poor fit]","23.1 µM [falling, partial curve, poor fit]"
CCCCn1c(SCC(=O)N(CC)C2CCS(=O)(=O)C2)nc2cc(S(N)(=O)=O)ccc21 (stereo not given),–,–,"0.116 µM [rising, single point]"
N#C/C(=C1\CCCN1)c1ccc2ccccc2n1,-14.1,–,–
CC1CCN(C(=O)C2CCCN2S(=O)(=O)c2ccc(Cl)cc2)CC1 (stereo not given),-7.08,"0.58 µM [rising, single point]",–
CCOC(=O)Cn1c(=O)c(-c2cc(Br)ccc2N)nc2ccccc21,53.6,–,"2.06 µM [rising, partial curve, poor fit]"
Nc1c(-c2ccc(Cl)cc2)cnn1-c1ccccc1,20.6,"29.1 µM [rising, single point]",–
O=C(CN(Cc1ccccc1)C(=O)CNS(=O)(=O)c1ccc(F)cc1)NCC1CCCO1 (stereo not given),6.41,"29.1 µM [falling, single point]",–
O=C(CSc1ncn(-c2ccccc2)n1)NCc1ccccc1,3.25,"6.51 µM [rising, single point]",–
Cc1ccc2nc3c(cc(C(=O)NC4CCCC4)c(=N)n3C3CCCCC3)c(=O)n2c1,89.7,"5.17 µM [falling, single point]","29.1 µM [rising, single point]"
c1ccc(Cn2c(-c3cccs3)nc3nc4ccccc4nc32)cc1,60,"2.91 µM [rising, single point]","0.58 µM [rising, full curve]"
CCN1CCN(c2ccc(Cl)cc2NC(=O)c2ccc(-n3nc(C)cc3C)cc2)CC1,-11.8,"0.731 µM [falling, full curve]",–
Cc1nnc(SCCn2c(N3CCCCCC3)nc3c2c(=O)[nH]c(=O)n3C)s1,-0.958,–,–
Nc1c([N+](=O)[O-])c(=O)oc2ccccc12,4.47,"6.51 µM [rising, single point]",–
CSc1ncc(C(=O)Nc2ccccc2Cl)c(C)n1,-31.7,–,"1.64 µM [falling, full curve]"
CC(=O)c1c(C)[nH]c(C(=O)CN2C(=O)NC3(CCCCC3)C2=O)c1C,69.5,"0.00517 µM [rising, full curve, poor fit]","29.1 µM [rising, single point]"
Cc1ccsc1/C=N/NC(=O)Cc1cccn1C,21.9,"3.26 µM [rising, partial curve]",–
CC(=O)OCc1c(F)c(F)c(-n2nc(C)cc2C)c(F)c1F,4.78,–,–
CCSC1=C(C#N)C(c2ccccc2Cl)C(C(=O)c2cccs2)C(O)(C(F)(F)F)N1 (stereo not given),–,"0.58 µM [falling, single point]",–
CCOC(=O)c1c(-c2ccccc2)oc2ccc(O)cc12,-29.9,"29.1 µM [falling, single point]",–

SMILES,cell number change [%],AC50 [1],AC50 [2]
COc1ccc(N2CCN(S(=O)(=O)c3ccc(Cl)s3)CC2)cc1,2.3,"29.1 µM [falling, single point]",–
COc1ccc(C(CCNC(C)c2ccccc2)c2ccc(F)cc2)cc1 (stereo not given),-59.8,"20.6 µM [falling, partial curve]","20.6 µM [falling, single point]"
O=C(Cn1c(=O)oc2cc(S(=O)(=O)N3CCCC3)ccc21)N1CCN(C2CCCCC2)CC1,6.32,"1.03 µM [falling, full curve, poor fit]",–
O=C(Nc1ccc(NS(=O)(=O)c2ccccc2)cc1)c1ccc(Cl)cc1,118,–,"23.1 µM [rising, partial curve]"
CC(=O)NC(CC(=O)N(C)C1CCCCC1)c1ccccc1 (stereo not given),15.2,–,–
Cc1cccc(NS(=O)(=O)c2ccc(C(=O)NCC(C)(C)N3CCOCC3)cc2)c1C,-22.7,–,–
Cc1cccc(-n2nnnc2SCC(=O)Nc2cccc(S(N)(=O)=O)c2)c1,22.1,–,–
COc1ccc(C(=O)NCCn2cc(SCC(=O)Nc3cc(C)on3)c3ccccc32)cc1OC,-11.6,"0.82 µM [rising, single point]",–
CCN1C(N(C)CCc2cccs2)=N[C@@H](c2ccccc2)C(C(=O)OC)=C1C,2.03,–,–
COc1cc(OC)c(C2=NOC(C(=O)Nc3cc(C)nn3-c3ccccc3)C2)cc1Cl (stereo not given),-7.19,–,–
CCN(CC)C(=O)c1cnn(-c2ccccc2)c1NC(=O)c1cccc(F)c1,24,"29.1 µM [falling, partial curve]",–
Nc1cnn(Cc2ccccc2F)c1,7.2,–,"0.13 µM [falling, full curve, poor fit]"
Cc1ccc(SCC(=O)Nc2ccc(-c3nc4ccccc4[nH]3)cc2)cc1,-65.3,"6.51 µM [rising, partial curve, poor fit]","18.4 µM [falling, single point]"
CCOc1ccc(/C=C(\C#N)C(=O)Nc2cccnc2)cc1,2.86,"0.517 µM [rising, partial curve]",–
O=C(Nn1cnc2ccccc2c1=O)c1ccccc1Cl,2.66,"0.00461 µM [falling, full curve, poor fit]",–
CCOC(=O)COc1ccc2c(c1)C(=O)CC(C)(c1cccnc1)O2 (stereo not given),–,"0.082 µM [rising, full curve, poor fit]",–
O=C(Nc1ccc([N+](=O)[O-])cc1)c1cc2ccccc2nc1Cl,7.69,"4.61 µM [rising, full curve]",–
O=C(NCc1ccco1)c1ccc(C(F)(F)F)cc1,-46.8,"29.1 µM [falling, single point]","2.06 µM [rising, single point]"
O=C(COc1ccc(Br)cc1)Nc1ccc(CN2CCOCC2)cc1,–,"29.1 µM [falling, single point]",–
CCC1CCCCN1C/C=C/c1ccccc1[N+](=O)[O-] (stereo not given),26.8,"0.116 µM [rising, full curve, poor fit]","0.00461 µM [rising, full curve, poor fit]"

# One compound at a time, as listed above. Values in the order: cell number change [%] | AC50 [1] | AC50 [2]
# `O=C(Nc1ccc([N+](=O)[O-])cc1)c1cc2ccccc2nc1Cl` is listed with 7.69 | 4.61 µM [rising, full curve] | –
# `COc1ccc(/C=C/C(=O)Nc2cccnc2)cc1OC` is listed with -38.6 | 6.51 µM [rising, single point] | 32.6 µM [falling, single point]
# `COc1ccc(C(=O)NCCn2cc(SCC(=O)Nc3cc(C)on3)c3ccccc32)cc1OC` is listed with -11.6 | 0.82 µM [rising, single point] | –
# `CCCN(CC(=O)Nc1ccc(C(N)=O)cc1)CC(=O)Nc1ccc(F)c(F)c1F` is listed with 284 | – | 29.1 µM [rising, partial curve]
